Some of the results follow.
These sequences were tested against OsWRKY34 (Oryza sativa, UniProt Q0JBA9 1-250) (assay: protein-binding microarray (RPBM); PBS, 2% BSA, 51.3 ng/ul salmon testes DNA, 50 uM zinc acetate, 200 nM TF, 25 C, 1 h; high values mean tight binding). Conditions: protein: recombinant; tags: N-terminal polyhistidine and DsRed monomer fusion (pET32a); label: CyDye5-dUTP incorporated in the synthesized complementary strand; 3' TTTTT single-stranded linker to array surface; dsDNA, one strand shown.
In short: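 Transcription factors, each fused N-terminally to a polyhistidine tag and DsRed, were expressed in E. coli BL21-CodonPlus and purified on Ni–NTA. A custom Agilent array was made double-stranded by primer extension with Cy5-dUTP and blocked with 2% BSA. It was incubated with 200 nM protein in PBS, 2% BSA, salmon testes DNA and 50 µM zinc acetate at 25 °C for 1 h, then washed. The binding signal is per-feature fluorescence intensity (arbitrary units) read on an Axon 4000B scanner.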

Chains of the proteins cited; added tags and fusions are not shown.
UniProt Q0JBA9, entry or part of it: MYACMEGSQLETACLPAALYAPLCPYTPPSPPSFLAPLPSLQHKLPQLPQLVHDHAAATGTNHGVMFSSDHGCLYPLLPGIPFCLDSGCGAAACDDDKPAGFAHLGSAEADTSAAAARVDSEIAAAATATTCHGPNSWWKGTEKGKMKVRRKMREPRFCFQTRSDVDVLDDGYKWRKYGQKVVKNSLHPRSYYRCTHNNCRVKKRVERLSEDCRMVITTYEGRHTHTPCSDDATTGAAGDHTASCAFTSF

Sequence | binding signal
CCCTCCATCCTATACTGTTAATATCCAATATTTGACCGTTCGGAGTCACCTAGTGCAG | 8800 fluorescence intensity (a.u.)
CTATTTTGCGTCCCTCATTTCTTACCTGCGATCTCATTGGCGGAGTCACCTAGTGCAG | 10100 fluorescence intensity (a.u.)
CGTCGATCAAATCATCCATCCATCCATCTAGAACACGATGCGGAGTCACCTAGTGCAG | 12900 fluorescence intensity (a.u.)
TCACGTTCAACGTTTGACTGTTCGTCTTATTTAAAATTTTCGGAGTCACCTAGTGCAG | 8400 fluorescence intensity (a.u.)
ACCTACAAATCTCATCATCTCATCAATATCCATTTCTACACGGAGTCACCTAGTGCAG | 10700 fluorescence intensity (a.u.)
TATTAATGGCCTTACATCTATCTTGTATCGTAGTATTACCCGGAGTCACCTAGTGCAG | 11900 fluorescence intensity (a.u.)
TCAATGCCAACAACAAACTTCATTTTGCTACCTTAGCTTCCGGAGTCACCTAGTGCAG | 9110 fluorescence intensity (a.u.)
TGGTTTTGGCAGCTGCTGTGTGCACTTGTGGGTTTTTTCTCGGAGTCACCTAGTGCAG | 8960 fluorescence intensity (a.u.)
CTTAATTGTAAATCGTTACAGTTTGTTGTCATTTCATTTCCGGAGTCACCTAGTGCAG | 10600 fluorescence intensity (a.u.)
ACCTTAATTAATTAATCTTGTTTTCTCATGGAGTTGTCATCGGAGTCACCTAGTGCAG | 10400 fluorescence intensity (a.u.)
GAATGGTCAAATATGTGAGAAAAAGTCAACGGCGTCATTTCGGAGTCACCTAGTGCAG | 14400 fluorescence intensity (a.u.)
AATCCTATGTTTTTTCTATTCCTCCGTTTTTTTAACCCTGCGGAGTCACCTAGTGCAG | 8710 fluorescence intensity (a.u.)
CGAGCCTAGCCCCACCACCTAGATGCTACTTTGATCAACCCGGAGTCACCTAGTGCAG | 8110 fluorescence intensity (a.u.)
ACATGTTGTAGTCTATTTATATTTATCACTAATGTAGAAACGGAGTCACCTAGTGCAG | 8550 fluorescence intensity (a.u.)
AATAATTTTCTTTTGTCACACTGTTTCTTCTCTAATCTATCGGAGTCACCTAGTGCAG | 12200 fluorescence intensity (a.u.)
TCTAGACATTACGGTCCCCATCGGTTGCCCACTTCTTATTCGGAGTCACCTAGTGCAG | 9160 fluorescence intensity (a.u.)
CTCGCCGGATCCCTCAAGTTCCATTGTTCCCTTTATAACCCGGAGTCACCTAGTGCAG | 8180 fluorescence intensity (a.u.)
CTTCTTAATAATTAGATAGTATTCACCATCAAGCTTTGACCGGAGTCACCTAGTGCAG | 8120 fluorescence intensity (a.u.)
CGGGAGGATGCGGCACAGGGGTTGTTGACCGTGCGTCGCTCGGAGTCACCTAGTGCAG | 8280 fluorescence intensity (a.u.)
GCACCATTGACTTGTCGCATAACGTTTGACCATTTATCTTCGGAGTCACCTAGTGCAG | 15600 fluorescence intensity (a.u.)
GTCCCTGGCCCCATATACTGCACATGACCCTTGACAAACGCGGAGTCACCTAGTGCAG | 10200 fluorescence intensity (a.u.)

Sequence | binding signal
GATCCAGTGCGTCCTCTCCTAGATGTTGTTGCCAAAATTTCGGAGTCACCTAGTGCAG | 8050 fluorescence intensity (a.u.)
CACTAAGTCCGTTCCCATGCCCATTTCTCCCTGCATATTACGGAGTCACCTAGTGCAG | 9680 fluorescence intensity (a.u.)
CCACGACAACTCGCACCACACACCACCACCATCAAACTCCCGGAGTCACCTAGTGCAG | 8600 fluorescence intensity (a.u.)
GCTGGATAAATTCTTTTGGCTTGTCATGGCCGGCTCATTTCGGAGTCACCTAGTGCAG | 10600 fluorescence intensity (a.u.)
CTAGGCTCCTAGCATACTTTCTGGTACTATTGGACACTCACGGAGTCACCTAGTGCAG | 8440 fluorescence intensity (a.u.)
TCAGGTCAACCGTAATCCTCATCACGGCATCAGTGCATCACGGAGTCACCTAGTGCAG | 8970 fluorescence intensity (a.u.)
TACTTGCTCTGGTTAACTGCCACATGTTTTGTTCTATAAACGGAGTCACCTAGTGCAG | 12700 fluorescence intensity (a.u.)
CTAACTTTTCCATTATGTTAAAACTTTCTTACACACTAACCGGAGTCACCTAGTGCAG | 8670 fluorescence intensity (a.u.)
GCTCCTCCTCGCCGTCCTGCTCCTGACATTGCTCGCCGCGCGGAGTCACCTAGTGCAG | 11300 fluorescence intensity (a.u.)
GGGGCTGTCAGAATCGTAAACCCTGGCTGTGGCAATGGCACGGAGTCACCTAGTGCAG | 8860 fluorescence intensity (a.u.)
CGATCACGCTGCCTCCAGCCCTCTACTGGTACATCCACGCCGGAGTCACCTAGTGCAG | 8770 fluorescence intensity (a.u.)
TGTGTGTGCGCCTCCGCGAGACCAGACACCAACCTCTCTCCGGAGTCACCTAGTGCAG | 8100 fluorescence intensity (a.u.)
TTATCCGGTTAGTTCCGGCGTTCTCATCTCAATCCCATATCGGAGTCACCTAGTGCAG | 9470 fluorescence intensity (a.u.)
ATGTGCTGTTGTGTGTACTTTATTGGTTAGTTCTATAATACGGAGTCACCTAGTGCAG | 12500 fluorescence intensity (a.u.)
CGCGGCCATCGCAGTCGCCCAGTCATTGTCCCACCGCCTCCGGAGTCACCTAGTGCAG | 9980 fluorescence intensity (a.u.)
CTCTCGAGCCTCCACGTCACATCGCCGGCGCCGGCTCATGCGGAGTCACCTAGTGCAG | 9490 fluorescence intensity (a.u.)
TCCAAACTATTTATCCAATTGTCATTCTAATTATATCGTTCGGAGTCACCTAGTGCAG | 9470 fluorescence intensity (a.u.)
GCAGTTCTTTCGATTCTACTTGGCGACGACATCCATGTGTCGGAGTCACCTAGTGCAG | 10600 fluorescence intensity (a.u.)
ACCACTTGGGCCGCAGTGACGCTGCTCGTACATGTCCCGACGGAGTCACCTAGTGCAG | 8080 fluorescence intensity (a.u.)
TTGTGAGTGTGTATGTGTTTATGGTGTGTAATTTTTTTTACGGAGTCACCTAGTGCAG | 9320 fluorescence intensity (a.u.)
GCAATTCTGTTTGTACGAGGTATAATGTCCCTTTTGCTTGCGGAGTCACCTAGTGCAG | 10600 fluorescence intensity (a.u.)

Sequence | binding signal
ATGCACTTCCTGTCACGGTCCGGCCCATCCTAGCTGCCGGCGGAGTCACCTAGTGCAG | 10000 fluorescence intensity (a.u.)
TGATCTATTCTACTGATTTTTTTTTCATAGTAAATTTTTTCGGAGTCACCTAGTGCAG | 8590 fluorescence intensity (a.u.)
GCGGCATCTCCAATCCCATCCATTCTAGTGGTCGATCTAGCGGAGTCACCTAGTGCAG | 8780 fluorescence intensity (a.u.)
GAATGTTTTTCTGGGATGCTGTGTACCGTGTTGTTCGCAACGGAGTCACCTAGTGCAG | 9870 fluorescence intensity (a.u.)
ACTACTATATGCTTTGAATAACGTGGGGATTGATCTGGTACGGAGTCACCTAGTGCAG | 10400 fluorescence intensity (a.u.)
GTAATTTGTTTTGTTATTAGTCTACGTTTAATATTTCAAACGGAGTCACCTAGTGCAG | 8420 fluorescence intensity (a.u.)
TTCAATGTTTTCAGATGTGTGTTTTTTCTAGTTTTCTTTCCGGAGTCACCTAGTGCAG | 8690 fluorescence intensity (a.u.)
TTCGTATGTTTTCCTATTATTGTATTCTTCTCTATTTCCACGGAGTCACCTAGTGCAG | 10800 fluorescence intensity (a.u.)
GTGGGCCCCGCTTCGCCCGCCCGTGCCAGCCAGGATGGGACGGAGTCACCTAGTGCAG | 8680 fluorescence intensity (a.u.)
TTTTCTCCTTGGCCTTTCGTGTGCCTGGCGCGCTCAGTTTCGGAGTCACCTAGTGCAG | 8440 fluorescence intensity (a.u.)
TTGGCCTCTGTTATATTTTCAGTCTCTTCAGAATATTTTTCGGAGTCACCTAGTGCAG | 8900 fluorescence intensity (a.u.)
GACTTCAATACTCAAGAGTACTAGTACTCGTGTTCTTTTTCGGAGTCACCTAGTGCAG | 8280 fluorescence intensity (a.u.)
GTTGTTTTCTTCCACGCGCTCTGCAACGCCACCGCTCCCCCGGAGTCACCTAGTGCAG | 9540 fluorescence intensity (a.u.)
TTACAATAACCATATAGCTTCATTTTCCTCTCGAGGCATGCGGAGTCACCTAGTGCAG | 8120 fluorescence intensity (a.u.)
AACATTTATTTCCATATCTTCATATATGGTTCCATATGAACGGAGTCACCTAGTGCAG | 8400 fluorescence intensity (a.u.)
TAAATTATTTTTGGTTGCTTGTTTATTTTTTCACGCTTATCGGAGTCACCTAGTGCAG | 8680 fluorescence intensity (a.u.)
AAAATTATTCATACGTTTGTTTAGCCACCAAGATTTGAATCGGAGTCACCTAGTGCAG | 8040 fluorescence intensity (a.u.)
ATGTAGACACTTATAAATCACATGTACACTTATCCTTATACGGAGTCACCTAGTGCAG | 8380 fluorescence intensity (a.u.)
CAAGTTTCACACTTTGCCGTTTTCCGACCATTATTGCCGTCGGAGTCACCTAGTGCAG | 8700 fluorescence intensity (a.u.)
GCTGGAGGTTCTGGGTCACTGCTTTGCTGCTGTTTGATGCCGGAGTCACCTAGTGCAG | 8220 fluorescence intensity (a.u.)
ATTCTCAGCGTCTCACACCTCCTGCGTTTCGTCTTTAATCCGGAGTCACCTAGTGCAG | 15600 fluorescence intensity (a.u.)

Sequence | binding signal
TTATTTACTTGCCACATCATTTTTCATCCTAGGTGGCAGCCGGAGTCACCTAGTGCAG | 8260 fluorescence intensity (a.u.)
GTAACTGTACATTTTATATAAGCATCTGCTATACCATGCACGGAGTCACCTAGTGCAG | 8220 fluorescence intensity (a.u.)
GGTGGGGTTGGCAGCTTTCGTGCTTGGTCAACCGGGCATGCGGAGTCACCTAGTGCAG | 8520 fluorescence intensity (a.u.)
GGTGGTCGAAATATTCGATTTTGTGGTTTAGGGTAATGGACGGAGTCACCTAGTGCAG | 10200 fluorescence intensity (a.u.)
TGTCGGTGTCGGTGGGCGGGGATTCGCGGTAGTGGTGGAACGGAGTCACCTAGTGCAG | 19700 fluorescence intensity (a.u.)
CGCATGTGTAGTGGTGTGTGTGTTTATGCGTCTGCCGTGTCGGAGTCACCTAGTGCAG | 9550 fluorescence intensity (a.u.)
AGTCACGTCCACTCATCCCTGTAAACATATACACACACCTCGGAGTCACCTAGTGCAG | 9090 fluorescence intensity (a.u.)
TATCGTGCTTCCATGTGCACAGATCGATCAAACTCGCATGCGGAGTCACCTAGTGCAG | 9270 fluorescence intensity (a.u.)
AATCAACACAACACTACACTACACCCACCATCTCGGCGTCCGGAGTCACCTAGTGCAG | 8870 fluorescence intensity (a.u.)
TTTTCAGTTTAATAGCCAATTTTTTTTTTATATTCAATACCGGAGTCACCTAGTGCAG | 8640 fluorescence intensity (a.u.)
GATCATTTTTTCATCATTTTGCATCCCACTTTAAAAATAACGGAGTCACCTAGTGCAG | 12300 fluorescence intensity (a.u.)
CATCCGCGACAGGCTGCCTGCACGACCGACCGTTATCATCCGGAGTCACCTAGTGCAG | 8390 fluorescence intensity (a.u.)
CCCCAACACTTGTCCAGCCACCACCACTTGTTCTTTCCTTCGGAGTCACCTAGTGCAG | 12200 fluorescence intensity (a.u.)
TATTTTCCAGTTTAGCTTCAAAGCTCCATTTACTGCATCTCGGAGTCACCTAGTGCAG | 8180 fluorescence intensity (a.u.)
ATGAATTCGAGACACACTTTGACTTTTGGCTTTTGGCTTTCGGAGTCACCTAGTGCAG | 10100 fluorescence intensity (a.u.)
TAATTTGGTCGTCTTCCTCCTCCTCACATCACATGCATCTCGGAGTCACCTAGTGCAG | 8890 fluorescence intensity (a.u.)
GCAGATGATTTTATCTCGATTTTTGTTAACACATTTTTCACGGAGTCACCTAGTGCAG | 8390 fluorescence intensity (a.u.)
TACATCCTAGCCATCCATCCTTCACATTTCATTTAATTCTCGGAGTCACCTAGTGCAG | 9140 fluorescence intensity (a.u.)
GCTAGCAAGTAGGCTCTCTCACTCCACACCCACACTACTCCGGAGTCACCTAGTGCAG | 8030 fluorescence intensity (a.u.)
ATTATTTATTCTTTTCATATCATTTGATTCATTGTTAAATCGGAGTCACCTAGTGCAG | 8620 fluorescence intensity (a.u.)
TTCTCCGTCCCAGCCACTGTATTCTCTATTTTCCATGAAGCGGAGTCACCTAGTGCAG | 12200 fluorescence intensity (a.u.)
